Counter-ions that a name gives are not always drawn.

The chains behind the UniProt entries cited, without tags or fusion partners. Residues count along the entry.
UniProt Q93009, 208-560: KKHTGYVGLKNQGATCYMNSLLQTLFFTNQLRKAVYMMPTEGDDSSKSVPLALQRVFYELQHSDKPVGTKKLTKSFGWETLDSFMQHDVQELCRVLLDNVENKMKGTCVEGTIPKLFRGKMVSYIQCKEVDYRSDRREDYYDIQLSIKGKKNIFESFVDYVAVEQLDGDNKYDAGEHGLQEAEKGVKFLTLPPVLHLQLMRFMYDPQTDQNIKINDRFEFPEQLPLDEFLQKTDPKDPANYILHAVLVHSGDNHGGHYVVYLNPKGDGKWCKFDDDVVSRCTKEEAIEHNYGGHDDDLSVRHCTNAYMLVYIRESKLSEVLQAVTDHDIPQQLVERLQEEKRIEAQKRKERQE

Assay [1] concerns the target catalytic domain of USP7 (USP7-CD) (Homo sapiens, UniProt Q93009). The assay can be described thus: STD-NMR titration for dissociation constant. It counts as binding.
In another assay the target is USP7-CD (Homo sapiens, UniProt Q93009). As to the kind of experiment: Thermal shift assay. Conditions: decrease of Tm of USP7-CD; USP7 10 μM, ligand 1 mM.
A further assay concerns HCT116 cells. As to the kind of experiment: MTT anti-proliferation assay. The format is cell-based. The note with it: Homo sapiens, HCT-116, 48 h.

As usually defined, the Kd is a measure of binding affinity in units of concentration. A higher Kd goes with a looser complex. In the case of `Cc1ccccc1C(OCCN(C)C)c1ccccc1` (stereo not drawn) [Compound 5, Orphenadrine], the Kd in assay [1] turned out to be 1100 ± 800 µM. Moreover, the “Thermal Shift (Δtm)” value at USP7-CD was 2.30 °C. The IC50 is the concentration that gives 50% inhibition. For the compound `CCN(CC)CC#CCOC(=O)C(O)(c1ccccc1)C1CCCCC1` (stereo not drawn) [Compound 6, Oxybutynin HCl], the IC50 with HCT116 cells turned out to be 36.2 ± 1.03 µM.
